According to publication PMC4894983:
Results are given in words; binding and its absence hold for the method and conditions named. Binding seen in cells or lysates may run through a third protein. Some entries that bind do so weakly or less than the wild type. Tags and fused reporters may be left off the sequences shown.

Chains of the proteins cited; added tags and fusions are not shown.
UniProt P56963: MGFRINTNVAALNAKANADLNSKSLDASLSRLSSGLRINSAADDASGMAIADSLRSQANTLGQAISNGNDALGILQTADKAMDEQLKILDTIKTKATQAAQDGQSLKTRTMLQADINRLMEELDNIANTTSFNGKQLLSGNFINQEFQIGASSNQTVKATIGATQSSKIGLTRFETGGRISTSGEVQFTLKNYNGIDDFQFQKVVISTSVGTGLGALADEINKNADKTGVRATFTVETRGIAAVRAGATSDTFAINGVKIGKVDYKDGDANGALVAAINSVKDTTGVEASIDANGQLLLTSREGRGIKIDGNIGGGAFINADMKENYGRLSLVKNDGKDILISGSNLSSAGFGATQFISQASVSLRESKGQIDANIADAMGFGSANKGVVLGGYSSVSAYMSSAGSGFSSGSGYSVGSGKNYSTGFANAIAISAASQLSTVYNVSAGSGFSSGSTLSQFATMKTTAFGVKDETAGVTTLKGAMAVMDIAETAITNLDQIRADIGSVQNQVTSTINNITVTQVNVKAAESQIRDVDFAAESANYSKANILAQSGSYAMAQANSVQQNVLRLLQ

What was measured:
[1] = target: T1, FliW-3xFLAG (flagellar assembly factor FliW, Cj1075, with C-terminal 3xFLAG) (Campylobacter jejuni) (UniProt Q0P9H9); assay: co-IP; 3xFLAG-tagged bait precipitated from C. jejuni lysate with anti-FLAG M2 antibody and Protein A-Sepharose; Buffer A (20 mM Tris-HCl pH 8.0, 150 mM KCl, 1 mM MgCl2, 1 mM DTT), 4 °C, five washes; mCherry-tagged partner detected by western blot
T1 sequence: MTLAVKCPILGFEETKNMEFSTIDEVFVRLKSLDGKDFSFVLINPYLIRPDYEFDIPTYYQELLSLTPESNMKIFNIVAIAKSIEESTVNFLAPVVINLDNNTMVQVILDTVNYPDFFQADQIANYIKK

[2] = target: FlaA-3xFLAG (major flagellin FlaA, Cj1339c, with C-terminal 3xFLAG) (Campylobacter jejuni) (UniProt P56963); assay: as above

B1: CsrA-mCherry (C. jejuni CsrA, Cj1103, with C-terminal mCherry) (protein, UniProt Q0P9F1 1-75)
chain: MLILSRKENESIIIGEGIEIKVVQTGKGYAKIGIEAPKSLMILRKELVQQVKDENLHSVVQNDIKLDDLSKKLIK
B1 was tested, and the binding [1] was “binds”.

B2: FliW-mCherry (flagellar assembly factor FliW, Cj1075, with C-terminal mCherry) (protein, UniProt Q0P9H9 1-129)
chain: MTLAVKCPILGFEETKNMEFSTIDEVFVRLKSLDGKDFSFVLINPYLIRPDYEFDIPTYYQELLSLTPESNMKIFNIVAIAKSIEESTVNFLAPVVINLDNNTMVQVILDTVNYPDFFQADQIANYIKK
In the case of B2, the binding [2] is reported as “binds”.
